Patent US8629112B2, “Template-fixed peptidomimetics with CXCR7 modulating activity” (priority 2010, dated 2014)
For at least one compound, name, drawing or mass did not settle the structure. Square brackets hold non-standard residues; d marks the D form. Peptide text beside a SMILES is read from it. ξ: configuration not given here. Tic = O=C(O)[C@@H]1Cc2ccccc2CN1; Aze = O=C(O)[C@@H]1CCN1; ξI = CCC(C)C(N)C(=O)O; ξT = CC(O)C(N)C(=O)O

Protein sequences, listed by entry. Tags and fused reporters are not part of them. Lines headed by an entry give the natural chain unless they say otherwise; changes in a name come on top.
UniProt P25106: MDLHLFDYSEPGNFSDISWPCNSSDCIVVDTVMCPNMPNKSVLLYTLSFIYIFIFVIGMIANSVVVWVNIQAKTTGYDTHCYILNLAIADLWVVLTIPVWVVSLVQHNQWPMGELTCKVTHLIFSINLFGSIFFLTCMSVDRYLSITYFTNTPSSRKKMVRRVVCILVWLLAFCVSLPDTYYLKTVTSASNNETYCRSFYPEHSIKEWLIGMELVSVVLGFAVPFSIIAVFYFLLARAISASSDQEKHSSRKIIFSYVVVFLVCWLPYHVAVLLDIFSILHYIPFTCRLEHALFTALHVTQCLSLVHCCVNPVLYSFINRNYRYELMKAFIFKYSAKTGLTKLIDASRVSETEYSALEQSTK

Molecular target: T1, CXCR7 (Homo sapiens, UniProt P25106)
T1 construct: host or cells: CHO (PathHunter CHO-CXCR7 β-arrestin cells)
Assay: CXCR7 β-arrestin recruitment assay (PathHunter CHO-CXCR7, agonistic assay)
Format: cell-based
Conditions: CHO CXCR7 β-arrestin cells, 90 min at 37° C., chemiluminescence
Method: Lyophilized peptides were weighed on a Microbalance (Mettler MX5) and dissolved in DMSO to a final concentration of 10 mM unless otherwise stated. Stock solutions were kept at +4° C., and protected from light.
2.2 CXCR7 β-Arrestin Recruitment Assay
The PathHunter CHO-CXCR7 (DiscoverX) assay was performed according to the manufacturer's protocol. In brief, CHO CXCR7 β-arrestin cells were seeded at a density of 5000 cells per well in 40 μl of F12 medium in a 96-half volume well black culture plate and incubated overnight at 37° C. in a humidified atmosphere with 5% CO2. The next day, serial dilutions of PEM compounds have been prepared in DMSO and subsequently diluted in HBSS buffer containing 0.1% BSA.
For agonistic assay, 10 μl of compound solution or a solution of stromal cell-derived factor-1 (SDF-1) as positive control was added to the cells with a final DMSO concentration of 1% (v/v). The plate was incubated for 90 min at 37° C. in 5% CO2 incubator with gentle shaking (300 rpm) before addition of 40 ul of detection reagent per well. Reaction was developed 90 min at room temperature in the dark with shaking, and chemiluminescence was measured with a Topcount (Perkin Elmer) luminescence counter.

| EC50 | Structure (SMILES) |
| --- | --- |
| 63.4 ± 20.6 nM | CCC(C)C1NC(=O)[C@H](Cc2c[nH]c3ccccc23)NC(=O)[C@@H]2Cc3ccccc3CN2C(=O)[C@H]2CCCN2C(=O)[C@H](CCCNC(=N)N)NC(=O)[C@H](Cc2c[nH]c3ccccc23)NC1=O (stereo partly drawn) [compound 12, cyclo(-Trp-^DIle-Trp-Arg-^DPro-Tic-)] (cyclo(W[ξI]WR[dP][Tic])) |
| 148 ± 33.4 nM | CC(O)C1NC(=O)[C@H](Cc2c[nH]c3ccccc23)NC(=O)[C@@H]2CCN2C(=O)[C@H]2CCCN2C(=O)[C@H](CCCNC(=N)N)NC(=O)[C@H](Cc2ccc(O)cc2)NC1=O (stereo partly drawn) [compound 49, cyclo(-Trp-^DThr-Tyr-Arg-^DPro-Azt-)] (cyclo(W[ξT]YR[dP][Aze])) |
